Measurements reported in PubChem BioAssay AID504791 (Drosophila RNAi Screening Center, 2011).
Assay: 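Factors in Argonaute-based small RNA production and activity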 (primary screen). Cell system: Drosophila S2-derived reporter cells. Reagents: long dsRNA against Drosophila genes, about 150-250 ng dsRNA per well (siRNA assay); about 80-120 ng (miRNA assay). Timing: about 5 days (siRNA assay); about 4 days (miRNA assay). Treatment: copper sulfate induction of reporters: 25 µM (siRNA assay); 200 mM stated (miRNA assay), 1-2 days before reading. Detection: 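Per-well ratio of Renilla over firefly light, expressed relative to that plate's average ratio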. Rule for the call: 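a well was a first-pass pick when its plate-scaled ratio rose above 1.5 (siRNA assay) or 1.6 (miRNA assay), or dropped below 0.6; a gene counted only if two separate dsRNAs agreed on retest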.
The screen tested about 23,000 reagents; this is a random part of those with a known target gene and a result. In the full data, 199 (0.86%) got an active call. 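Plate-scaled ratios behind the calls are not deposited; printed light signals are raw; many rows marked increased or decreased are still called inactive.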 A plus sign joins genes that one reagent is predicted to hit. The record does not give: the direction of the score.

no.	Target gene	DRSC id	stable siRNA reporter change	stable assay Renilla, run 1 (luminescence)	stable assay firefly, run 1 (luminescence)	outcome
1	reb	DRSC06308		5399	3.12e5	inactive
2	firl	DRSC02428		7214	4.92e5	inactive
3	CG13920	DRSC08389		9183	3.52e5	inactive
4	CG4950	DRSC10463		7436	3.84e5	inactive
5	sas	DRSC12631		6678	3.13e5	inactive
6	CG13958 (retired record)	DRSC02300		6658	4.32e5	inactive
7	CG42726 + CG42727	DRSC14485		9135	5.49e5	inactive
8	CG7382	DRSC03052		2.54e5	1.97e5	inactive
9	Egfrap	DRSC09963		5792	4.84e5	inactive
10	Egfrap	DRSC09964		5923	5.54e5	inactive
11	CG14204	DRSC19559		5526	3.29e5	inactive
12	CG7646	DRSC11232		6359	3.64e5	inactive
13	TpnC73F	DRSC11307		6932	4.81e5	inactive
14	ste24c + CG30461	DRSC05639		7376	5.19e5	inactive
15	ste24c + CG30461	DRSC07316		6130	3.33e5	inactive
16	slgA	DRSC20586		7592	4.42e5	inactive
17	CG33308	DRSC01419		5091	3.19e5	inactive
18	CG15710	DRSC06581		6415	3.51e5	inactive
19	Hacd2	DRSC03181		6826	5.74e5	inactive
20	Dyb	DRSC07208		5643	5.13e5	inactive
21	Dyb	DRSC22862		5375	5.52e5	inactive
22	Nepl5	DRSC03241		1.01e5	3.47e5	inactive
23	CG7394	DRSC10835		7320	4.50e5	inactive
24	mahe	DRSC17755		8322	4.28e5	inactive
25	CG18547	DRSC15345		7391	4.21e5	inactive
26	shi	DRSC20373		9066	5.07e5	inactive
27	CG14932	DRSC02414		7243	4.14e5	inactive
28	tobi	DRSC14435		7887	4.01e5	inactive
29	CG30098	DRSC05605		7703	5.49e5	inactive
30	Pms2	DRSC07511		10929	5.59e5	inactive
31	msk	DRSC11340		7966	3.58e5	inactive
32	Hsepi	DRSC04986		6931	4.41e5	inactive
33	Rh5	DRSC03412		7175	3.00e5	inactive
34	CG10011	DRSC14174		8435	3.97e5	inactive
35	CG14667	DRSC12253		7202	3.87e5	inactive
36	CG4988	DRSC02800		7675	4.05e5	inactive
37	Dredd	DRSC18461		8711	4.87e5	inactive
38	CG2540	DRSC19856		7086	3.28e5	inactive
39	Vps35	DRSC04519		7313	1.13e6	inactive
40	Rpn2	DRSC16839	reporter ratio raised past the hit cutoff	5462	1.90e5	active
41	mthl3	DRSC06997		8520	4.04e5	inactive
42	CG42367	DRSC21388		8058	4.31e5	inactive
43	Pdp	DRSC17825		7544	3.68e5	inactive
44	CG3088	DRSC10352		7988	3.90e5	inactive
45	Rad1 + Sws1	DRSC00778		7418	4.60e5	inactive
46	RpS25	DRSC16837		7306	5.68e5	inactive
47	CG30050	DRSC05342		5427	3.54e5	inactive
48	RPA2	DRSC03184		8505	7.26e5	inactive
49	JMJD7	DRSC09703		5354	5.25e5	inactive
50	Ldsdh1	DRSC18219		5378	3.38e5	inactive
51	Sry-beta	DRSC16868		8370	4.18e5	inactive
52	ric8b + ric8a	DRSC18104		5004	4.60e5	inactive
53	CG14778	DRSC17953		6338	4.27e5	inactive
54	CG7054	DRSC16185		10253	3.67e5	inactive
55	CG13982	DRSC02314		7058	4.76e5	inactive
56	CG15269	DRSC01942		7778	4.50e5	inactive
57	CG11155	DRSC17184		5115	3.11e5	inactive
58	CG11155	DRSC17205		7170	3.09e5	inactive

3 successive records already listed, for reference:
no.	Target gene	DRSC id	stable siRNA reporter change	stable assay Renilla, run 1 (luminescence)	stable assay firefly, run 1 (luminescence)	outcome
23	CG7394	DRSC10835		7320	4.50e5	inactive
24	mahe	DRSC17755		8322	4.28e5	inactive
25	CG18547	DRSC15345		7391	4.21e5	inactive
